# Results of single-concentration screens

The chains behind the UniProt entries cited, without tags or fusion partners.
UniProt P9WFT3, whole entry: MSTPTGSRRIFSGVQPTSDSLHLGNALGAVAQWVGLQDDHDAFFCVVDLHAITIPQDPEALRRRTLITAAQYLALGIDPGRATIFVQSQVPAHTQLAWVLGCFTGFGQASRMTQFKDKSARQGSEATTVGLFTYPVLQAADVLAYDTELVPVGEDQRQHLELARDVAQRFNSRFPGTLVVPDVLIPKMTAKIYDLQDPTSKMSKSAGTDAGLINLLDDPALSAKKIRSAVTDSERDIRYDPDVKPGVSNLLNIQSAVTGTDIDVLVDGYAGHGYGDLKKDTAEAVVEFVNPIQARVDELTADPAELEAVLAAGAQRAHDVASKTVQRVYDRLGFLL
UniProt I6X8D2, whole entry: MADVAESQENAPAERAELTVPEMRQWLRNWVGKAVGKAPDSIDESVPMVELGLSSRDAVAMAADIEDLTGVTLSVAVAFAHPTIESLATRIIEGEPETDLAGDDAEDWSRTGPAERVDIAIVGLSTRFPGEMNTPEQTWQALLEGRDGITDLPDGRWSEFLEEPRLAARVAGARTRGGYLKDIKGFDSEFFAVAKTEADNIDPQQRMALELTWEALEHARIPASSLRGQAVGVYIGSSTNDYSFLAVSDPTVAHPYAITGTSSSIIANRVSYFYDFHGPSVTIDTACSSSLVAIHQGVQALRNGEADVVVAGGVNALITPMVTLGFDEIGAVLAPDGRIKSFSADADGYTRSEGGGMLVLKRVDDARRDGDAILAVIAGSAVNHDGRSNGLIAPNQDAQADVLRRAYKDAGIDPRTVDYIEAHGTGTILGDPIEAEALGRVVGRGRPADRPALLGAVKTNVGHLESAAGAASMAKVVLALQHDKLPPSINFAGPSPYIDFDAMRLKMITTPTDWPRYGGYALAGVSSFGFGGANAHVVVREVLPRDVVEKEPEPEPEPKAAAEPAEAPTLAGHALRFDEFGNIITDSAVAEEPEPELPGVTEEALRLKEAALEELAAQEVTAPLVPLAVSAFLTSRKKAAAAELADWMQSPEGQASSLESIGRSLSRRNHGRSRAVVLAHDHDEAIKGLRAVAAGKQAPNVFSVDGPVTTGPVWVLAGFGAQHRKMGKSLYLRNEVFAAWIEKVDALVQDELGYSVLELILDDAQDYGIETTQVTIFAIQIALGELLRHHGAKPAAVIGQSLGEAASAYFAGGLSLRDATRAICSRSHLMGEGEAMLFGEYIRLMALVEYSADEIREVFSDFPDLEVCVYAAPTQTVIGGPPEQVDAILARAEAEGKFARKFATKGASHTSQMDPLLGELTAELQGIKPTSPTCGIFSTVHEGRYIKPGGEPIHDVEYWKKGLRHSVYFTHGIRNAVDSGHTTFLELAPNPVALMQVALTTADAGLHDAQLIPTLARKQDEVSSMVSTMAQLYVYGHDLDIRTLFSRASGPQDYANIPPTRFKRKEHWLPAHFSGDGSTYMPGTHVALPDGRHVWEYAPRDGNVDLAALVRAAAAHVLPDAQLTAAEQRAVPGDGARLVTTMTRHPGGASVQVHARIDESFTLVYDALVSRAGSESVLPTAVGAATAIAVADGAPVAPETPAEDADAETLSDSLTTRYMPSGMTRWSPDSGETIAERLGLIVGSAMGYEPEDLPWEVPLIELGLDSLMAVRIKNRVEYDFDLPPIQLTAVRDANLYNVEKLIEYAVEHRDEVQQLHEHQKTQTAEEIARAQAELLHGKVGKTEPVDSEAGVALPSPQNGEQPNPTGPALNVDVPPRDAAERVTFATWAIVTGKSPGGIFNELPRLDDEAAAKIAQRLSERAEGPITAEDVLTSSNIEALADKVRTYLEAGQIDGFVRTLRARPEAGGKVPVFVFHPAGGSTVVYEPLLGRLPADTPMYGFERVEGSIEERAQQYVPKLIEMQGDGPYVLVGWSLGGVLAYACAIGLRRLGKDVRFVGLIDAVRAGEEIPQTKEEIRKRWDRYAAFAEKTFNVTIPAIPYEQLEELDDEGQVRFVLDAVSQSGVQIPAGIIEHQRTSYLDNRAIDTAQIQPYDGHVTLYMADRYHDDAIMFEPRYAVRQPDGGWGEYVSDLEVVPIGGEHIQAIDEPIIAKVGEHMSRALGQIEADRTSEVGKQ
UniProt P9WNZ1, whole entry: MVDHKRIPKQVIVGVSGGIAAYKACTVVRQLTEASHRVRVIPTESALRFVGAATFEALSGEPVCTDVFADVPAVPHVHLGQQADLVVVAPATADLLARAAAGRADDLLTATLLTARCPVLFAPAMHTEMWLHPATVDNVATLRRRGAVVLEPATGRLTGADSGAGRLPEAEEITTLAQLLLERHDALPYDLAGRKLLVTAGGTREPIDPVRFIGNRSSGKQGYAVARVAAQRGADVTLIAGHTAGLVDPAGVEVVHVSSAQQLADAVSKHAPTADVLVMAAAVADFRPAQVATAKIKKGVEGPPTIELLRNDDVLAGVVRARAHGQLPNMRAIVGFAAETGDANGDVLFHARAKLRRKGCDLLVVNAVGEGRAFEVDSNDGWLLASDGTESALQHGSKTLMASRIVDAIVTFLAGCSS

The values are deposited in ChEMBL (CHEMBL3988442, “University of Dundee, Small-Polar-MMV Screening Library” (2021)).

Results are given as percent effect. The controls that fix the scale are not given in the record; negative values are as filed. This is an unselected part of the compounds tested. Two or more numbers in one place are separate tests of the same structure; such repeats can differ widely. A dash means the value is not listed here; it may have been measured.

A: 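Enzyme assay of tryptophanyl-tRNA synthetase; the read-out is not stated. Target: Tryptophan-tRNA ligase, Mycobacterium tuberculosis (UniProt P9WFT3). Concentration: 10 µM. Direction is not recorded; retested compounds ran higher, which suggests that high means inhibition. Size under these conditions: about 65,000 compounds, about 64 of them at 50% or above in at least one test.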
B: 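Polyketide synthase Pks13, Mycobacterium tuberculosis (UniProt I6X8D2). Enzyme assay of the thioesterase domain of polyketide synthase 13; the read-out is not stated. Concentration: 30 µM. Higher reads as stronger inhibition (inferred from which compounds were picked for retests). About 67,000 compounds were tested under these conditions; 0.46% (about 300) showed 50% or more at least once.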
C: 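Coenzyme A biosynthesis protein CoaBC, Mycobacterium tuberculosis (UniProt P9WNZ1). Enzyme assay of CoaBC with a phosphate dye (Biomol Green) read at 650 nm. Compounds at 30 µM. Direction is inferred from only a few compounds that gave an IC50; most scored high, so higher reads as stronger inhibition. Most strong results did not repeat in a second test. Size under these conditions: about 67,000 compounds, about 40 of them at 50% or above in at least one test.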

| # | compound | A | B | C |
|---|---|---|---|---|
| 1 | `Fc1cccc(-c2c[nH]c(C3CCCN3)n2)c1` (centres undefined) | 2.523% | -26.61% | - |
| 2 | `CCCC(=O)N1CCC(N2CC[C@@](O)(CCOC)[C@H](C)C2)CC1` | -5.003% | -3.899% | -3.708% |
| 3 | `O=c1c(NCCCO)c(N2CCN(c3ccccc3)CC2)c1=O` | 4.022% | 4.715% | 3.797% |
| 4 | `Cc1cnn(CC2CCCCN2CC(=O)Nc2c(C)n[nH]c2C)c1` (centres undefined) | -4.776% | -7.097% | -2.089% |
| 5 | `COCC(=O)N1Cc2ccnn2CC(COCCN(C)C)C1` (centres undefined) | 2.278% | 6.391% | -1.629% |
| 6 | `O=C(CCCc1cn[nH]c1)N1C[C@@H](CN2CCCC2)C[C@H](CO)C1` | -3.119% | -25.31% | -9.671% |
| 7 | `Cn1ncc2c(N[C@@H]3CS(=O)(=O)C[C@H]3O)nc(C(C)(C)C)nc21` | -0.07097% | -17.86% | 4.797% |
| 8 | `CNc1nc2c(c(C(=O)N3CCCC3)n1)CN(Cc1nccn1C)CC2` | 4.852% | -2.036% | 4.946% |
| 9 | `CCC1CCCCCN1C(=O)c1cc(C#N)c(SC)[nH]c1=O` (centres undefined) | -1.584% | -5.147% | 0% |
| 10 | `CN(C)S(=O)(=O)N1CCCCCC1c1cc(-c2ccc(F)cc2)no1` (centres undefined) | -6.854% | 12.78% | -7.264% |
| 11 | `CCc1ncc2c(n1)CN(Cc1nnc(Cc3ccccc3)o1)CC2` | 7.354% | -9.487% | 10.83% |
| 12 | `O=C(Cc1c(F)cccc1F)N1CCN(CC(=O)N2CCCC2)CC1` | -1.145% | -14.53% | 4.353% |
| 13 | `CCN1CCN(C2CCN(Cc3c(C)noc3C)CC2)C1=O` | -2.439% | -22.27% | 1.799% |
| 14 | `c1ccc(O[C@H]2COCCN(Cc3cccc4c3OCO4)C2)cc1` | -3.585% | 1.338% | -30.45% |
| 15 | `Cc1cc(CNC(=O)NCc2ccccc2N2CCOCC2)no1` | 0.2863% | -23.91% | -0.3654% |
| 16 | `CC1(C)CNC(=O)c2nc(CCCN3CCCC3)[nH]c2C1` | 2.558% | -17.22% | 8.78% |
| 17 | `COCCNC(=O)C1CN(Cc2cccc(C)n2)Cc2ccnn2C1` (centres undefined) | -2.716% | -15.54% | 5.076% |
| 18 | `CCc1ccc(C(=O)N2CCC(O)(CN3CCOCC3)C(C)(C)C2)[nH]1` (centres undefined) | -5.21% | -6.591% | -1.366% |
| 19 | `COCCN1C[C@@H](C(=O)O)[C@H](c2ccccc2C)C1` | 2.056% | 12.31% | 11.9% |
| 20 | `Cc1ccc(CNc2cnn(CC(F)F)c2)cc1C` | -3.008% | -5.198% | 4.126% |
| 21 | `O=C(NCc1ccoc1)c1ccc(C2CCCN2CC2CCOCC2)s1` (centres undefined) | 6.137% | 4.047% | 6.379% |
| 22 | `CCCN(CC(=O)OC)C(=O)c1sc(C)nc1C` | 2.341% | -14.26% | 2.686% |
| 23 | `Oc1cccc(CN2C[C@H]3CC[C@@H]2CN(Cc2cccnc2)C3)c1` | -2.464% | 25.04% | -48.13% |
| 24 | `Cc1cc(C)nc(Nc2nccnc2C2CCCN(C(CO)CO)C2)n1` (centres undefined) | -1.634% | -2.531% | 9.589% |
| 25 | `CC(=O)N1CCC2(CC1)CN(C(=O)[C@@H]1CSCN1)c1ccc(Cl)cc12` | - | -137.2% | 3.515% |
| 26 | `COC(=O)C(NC(=O)COC1CCCC1)c1cc(F)ccc1F` (centres undefined) | -3.757% | -9.428% | 1.205% |
| 27 | `Cc1cn2c(CN(C)C(=O)c3cnc(N)c(Cl)c3)c(C)nc2s1` | 4.312% | -4.587% | 0% |
| 28 | `Cc1cccc(CCC(=O)N2CCOCC2c2c(C)n[nH]c2C)c1` (centres undefined) | -6.486% | -17.35% | -1.919% |
| 29 | `CC(C)(O)CCc1cccc(C(=O)N2CCC3(CCO3)CC2)c1` | 1.638% | -20.37% | 1.373% |
| 30 | `O=C(Nc1nncs1)N1CCC(CCO)CC1` | -0.9372% | -14.16% | 2.386% |
| 31 | `COc1ccc(CN2CCCC(Nc3cccc(F)c3)C2)cc1O` (centres undefined) | 0.6706% | -25.54% | -18.5% |
| 32 | `CSC1(CNC(=O)N(C)Cc2ccc(C)s2)CCOCC1` | -2.687% | -3.16% | 5.596% |
| 33 | `CN(C)C(=O)NC1COC2(CCN(S(=O)(=O)c3ccccc3)CC2)C1` (centres undefined) | -9.959% | -18.81% | 2.792% |
| 34 | `CCC(Sc1ncc(CO)n1C)c1ccccc1` (centres undefined) | -5.098% | -37.35% | 3.6% |
| 35 | `CC(=O)C1(c2ccccc2)CCN(C(=O)CC2CNCCO2)CC1` (centres undefined) | 4.074% | -6.906% | -2.941% |
| 36 | `c1cc([C@H]2C[C@@H]3CCN(Cc4nccs4)C[C@H]3O2)ncn1` | -3.466% | -24.82% | 2.832% |
| 37 | `O=C1NC(c2cnc(C3CCC3)s2)Nc2ncccc21` (centres undefined) | 2.524% | 1.92% | 3.435% |
| 38 | `CC(Cn1ccnc1)NC(=O)Cc1ccc2c(c1)OCCO2` (centres undefined) | 2.726% | -9.771% | -1.136% |
| 39 | `Cc1ccnc(OC[C@]23COC[C@H]2CN(C(=O)c2cnccn2)C3)n1` | 13.7% | -10.65% | 4.938% |
| 40 | `O=C(Nc1cn[nH]c1)N(CCCO)C1CCc2ccccc21` (centres undefined) | -0.5093% | 12.3% | 0.2439% |
| 41 | `COCC1c2nnn(CC3CC3)c2CCN1C(=O)N1CCCC1` (centres undefined) | 6.882% | 3.305% | 22.9% and 26.46% |
| 42 | `CCc1nc(NS(=O)(=O)c2cc(C)ccc2F)no1` | 1.066% | -22.07% | 4.464% |
| 43 | `CC(C)c1nc(CN2CCOC(Cn3cncn3)C2)cs1` (centres undefined) | -2.715% | -7.217% | -0.3831% |
| 44 | `Cc1cc(C)c(CNc2ncnc3ccccc23)c(=O)[nH]1` | 1.821% | -9.791% | 6.405% |
| 45 | `CN1CC2(CCN(C(=O)Cc3ccccn3)CC2)OCC1=O` | -5.489% | -8.928% | 6.762% |
| 46 | `COc1ccccc1N(C)Cc1nc2c(cnn2C)c(=O)[nH]1` | -2.801% | 7.438% | -15.13% |
| 47 | `Cc1cnn(CC2CN(CC(=O)Nc3ccnn3C(C)C)CCO2)c1` (centres undefined) | 2.045% | -9.805% | -0.1272% |
| 48 | `COC(=O)c1c(C(F)(F)F)cnc(OC)c1Cl` | -8.721% | -20.09% | 3.682% |
| 49 | `COc1ccc(CNC(C)c2ccc3[nH]c(=O)[nH]c3c2)cc1` (centres undefined) | 1.956% | - | 3.677% |
| 50 | `Cc1nc(CN(C)C2CCN(Cc3ccc4c(c3)OCCO4)C2)no1` (centres undefined) | -1.016% | -20.15% | -6.923% |
| 51 | `Cn1cccc1C(=O)NCc1ccnc(C2CCCOC2)n1` (centres undefined) | 3.198% | -3.33% | -49.39% |
| 52 | `Cc1cc(C)n(CC2CCCN2C(=O)CCc2cscn2)n1` (centres undefined) | 0.9434% | -8.299% | -3.723% |
| 53 | `O=c1cc(CN2C[C@H]3CC[C@@H]2CN(Cc2ccccc2)C3)[nH]c(=O)[nH]1` | -0.8704% | 4.469% | -9.091% |
| 54 | `O=C(NCc1cc(C2CC2)n(C2CCCC2)n1)C1CC1` | -1.614% | 1.293% | -0.361% |
| 55 | `Cc1nnc2ccc(C(=O)N3CCSC(C)(C)C3)cn12` | 11.99% | 11.27% | -6.517% |

Some entries from above, unchanged:

compound	A	B	C
Cc1cc(C)c(CNc2ncnc3ccccc23)c(=O)[nH]1	1.821%	-9.791%	6.405%
COc1ccccc1N(C)Cc1nc2c(cnn2C)c(=O)[nH]1	-2.801%	7.438%	-15.13%
COC(=O)C(NC(=O)COC1CCCC1)c1cc(F)ccc1F (centres undefined)	-3.757%	-9.428%	1.205%
COCCNC(=O)C1CN(Cc2cccc(C)n2)Cc2ccnn2C1 (centres undefined)	-2.716%	-15.54%	5.076%